# In the supplement of paper PMC5770031:
# The other results are listed elsewhere or left out. Single values are uncertain here, since repeats match poorly.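 Flies heterozygous for the ATM8 allele over a balancer chromosome carrying normal ATM were mated with each other on treated food. Parents laid eggs for 5–6 days and the young then developed for about 12 days, so both parents and larvae ate the compound. The read-out is the share of all emerged adults that carry two ATM8 copies, compared with 2% DMSO control vials. The paper called compounds neutral at 10–20% such offspring, harmful below 10%, and helpful above 20%.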
# Tested on: Drosophila melanogaster ATM8 (temperature-sensitive ATM allele)
# Test: fraction of eclosed F1 progeny that are homozygous ATM8 (rescue of developmental lethality); higher = more rescue of ATM8 developmental lethality; extreme values may be limits of the assay
# Settings: compound concentration applied to food 0.2 mM; 21 °C
row,Compound,fraction of eclosed F1 progeny that are homozygous ATM8
1,CCCN(CCC)C(=O)C(CCC(=O)O)NC(=O)c1ccccc1 (stereo unspecified),0.12
2,CCCCC[C@H](CC(=O)O)C(=O)O,0.135
3,O=c1ccc2ccccc2[nH]1,0.0455
4,CC[C@H](CC[C@@H](C)[C@H]1CC[C@H]2[C@@H]3CC=C4C[C@@H](O)CC[C@]4(C)[C@H]3CC[C@]12C)C(C)C [beta-SITOSTEROL],0.188
5,C[C@@H]1[C@H](O)[C@@H](C)/C=C/C=C/C=C/C=C/C=C/C=C/C=C/[C@H](O[C@@H]2O[C@H](C)[C@@H](O)[C@H](N)[C@@H]2O)C[C@@H]2O[C@](O)(C[C@@H](O)C[C@@H](O)[C@H](O)CC[C@@H](O)C[C@@H](O)CC(=O)O[C@H]1C)C[C@H](O)[C@H]2C(=O)O,0.05
6,CO[C@@]1(NC(=O)CSCC#N)C(=O)N2C(C(=O)O)=C(CSc3nnnn3C)CS[C@@H]21,0.0286
7,CC([C@H](O)c1ccccc1)N(C)C (stereo partly specified),0.25
8,Cc1ncc(C[n+]2csc(CCO)c2C)c(=O)[nH]1,0.11
9,CCOC(=O)C(C)(C)Oc1ccc(Cl)cc1,0.185
10,CN1CCc2cccc3c2[C@H]1Cc1ccc(O)c(O)c1-3,0.0303
11,COc1ccc(OC)c(C(O)C(C)N)c1 (stereo unspecified),0.158
12,CCC(Cc1c(I)cc(I)c(N)c1I)C(=O)O (stereo unspecified),0
13,CCC(NC(C)C)C(O)c1ccc(O)c(O)c1 (stereo unspecified),0.143
14,C[C@]12CC[C@@H]3c4ccc(O)cc4CC[C@H]3[C@@H]1CC[C@@H]2OC(=O)CCC1CCCC1,0.2
15,O=C1C=C2CC3(O)COc4c(ccc(O)c4O)C3=C2C=C1O (stereo unspecified),0.157
16,CN1CC(=O)NC1=N,0.22
17,NCCCCNCCCN,0.14
18,CC(C)(C(=O)c1cccnc1)c1cccnc1,0.192
19,CC(=O)N(O)CCCCCNC(=O)CCC(=O)N(O)CCCCCNC(=O)CCC(=O)N(O)CCCCCN,0.0727
20,C=CC(C)(O)CCC1C(=C)CC(O)C2C(C)(C)CCCC12C (stereo unspecified),0.0513
21,CCNC(=O)CC[C@H](N)C(=O)O,0.103
22,OC[C@H]1O[C@@H]2O[C@H]3[C@H](O)[C@@H](O)[C@@H](O[C@H]4[C@H](O)[C@@H](O)[C@@H](O[C@H]5[C@H](O)[C@@H](O)[C@@H](O[C@H]6[C@H](O)[C@@H](O)[C@@H](O[C@H]7[C@H](O)[C@@H](O)[C@@H](O[C@H]8[C@H](O)[C@@H](O)[C@@H](O[C@H]1[C@H](O)[C@H]2O)O[C@@H]8CO)O[C@@H]7CO)O[C@@H]6CO)O[C@@H]5CO)O[C@@H]4CO)O[C@@H]3CO [beta-CYCLODEXTRIN],0.0727
23,CC(C)/N=c1\cc2n(-c3ccc(Cl)cc3)c3ccccc3nc-2cc1Nc1ccc(Cl)cc1,0.222

row,Compound,fraction of eclosed F1 progeny that are homozygous ATM8
1,O=C1Cc2cc(CCN3CCN(c4nsc5ccccc45)CC3)c(Cl)cc2N1,0.0455
2,O=C1C(Cl)=C(Cl)C(=O)C(Cl)=C1Cl,0.0444
3,CC1CCc2c(N3CCC(O)CC3)c(F)cc3c(=O)c(C(=O)O)cn1c23 (stereo unspecified),0.13
4,C[C@@H]1CC[C@]2(NC1)O[C@H]1C[C@H]3[C@@H]4CC=C5C[C@@H](O)CC[C@]5(C)[C@H]4CC[C@]3(C)[C@H]1[C@@H]2C,0.163
5,Clc1ccc(COC(Cn2ccnc2)c2ccc(Cl)cc2Cl)c(Cl)c1 (stereo unspecified),0.0385
6,O=C(O)c1cc(O)c2c(c1)[C@@H]([C@H]1c3cc(C(=O)O)cc(O)c3C(=O)c3c(O[C@@H]4O[C@H](CO)[C@@H](O)[C@H](O)[C@H]4O)cccc31)c1cccc(O[C@@H]3O[C@H](CO)[C@@H](O)[C@H](O)[C@H]3O)c1C2=O,0.241
7,O=c1c2ccccc2oc2ccccc12,0.0625
8,CO[C@H]1O[C@@H]2O[C@@]3(C)CC[C@H]4[C@H](C)CC[C@@H]([C@H]1C)[C@@]24OO3,0.333
9,CN1CCN(C2=Nc3cc(Cl)ccc3Nc3ccccc32)CC1,0.263
10,CCCCCCCCCCCCCCCC(=O)NCCO,0.0256
11,C=C1C2CC[C@@]3(C)[C@H](c4ccoc4)OC(=O)C[C@]13O[C@H]1CC(O)C(C)(C)C(CC(=O)OC)[C@@]21C (stereo partly drawn) [3alpha-HYDROXY-3-DEOXYANGOLENSIC ACID METHYL ESTER],0.163
12,CC(=O)O[C@H]1CC[C@]2(C)C3=C(CC[C@H]2C1(C)C)[C@]1(C)CC[C@H]([C@H](C)CCC=C(C)C)[C@@]1(C)CC3,0.225
13,Nc1ncnc(Nc2ccc(Cl)cc2)n1,0.103
14,O=C(O)c1ccccc1Nc1ccccc1,0.0909
15,Oc1ccc(Cl)cc1Cc1cc(Cl)ccc1O,0.234
16,NS(=O)(=O)c1cc(C(=O)O)c(NCc2ccco2)cc1Cl,0.04
17,COc1ccc2oc(-c3ccccc3)c(OC)c(=O)c2c1,0.118
18,O=C(O)c1cc(=O)c2ccccc2o1,0.14
19,CC(=O)CC(=O)CCC(=O)O,0.122
20,Cl[C@H]1[C@H](Cl)[C@@H](Cl)[C@@H](Cl)[C@H](Cl)[C@H]1Cl,0.235
21,Cc1cc(C2CCCCC2)n(O)c(=O)c1,0.082
22,O=C(O)c1cc2cc(Cl)ccc2[nH]1,0.17
23,C[C@H](N)C(=O)NC(Cc1ccccc1)C(=O)O (mixture of isomers),0.265

row,Compound,fraction of eclosed F1 progeny that are homozygous ATM8
1,CN[C@H](CC(C)C)C(=O)N[C@H]1C(=O)N[C@@H](CC(N)=O)C(=O)N[C@H]2C(=O)N[C@H]3C(=O)N[C@H](C(=O)N[C@H](C(=O)O)c4cc(O)cc(O)c4-c4cc3ccc4O)[C@H](O)c3ccc(c(Cl)c3)Oc3cc2cc(c3O[C@@H]2O[C@H](CO)[C@@H](O)[C@H](O)[C@H]2O[C@H]2C[C@](C)(N)[C@H](O)[C@H](C)O2)Oc2ccc(cc2Cl)[C@H]1O,0.0417
2,CNS(=O)(=O)Cc1ccc2[nH]cc(CCN(C)C)c2c1,0
3,NS(=O)(=O)c1cc2c(cc1Cl)N=CNS2(=O)=O,0.111
4,C#CCCCCCCCCCCCC(O)CC(O)CO.C=CCCCCCCCCCCCC(O)CC(O)CO (stereo unspecified),0.333
5,CCOc1ccc2c(c1)C(C)=CC(C)(C)N2,0.148
6,CCC(CCC(C)C1CCC2C3CCC4CC(O)CCC4(C)C3CCC12C)C(C)C (stereo unspecified),0.238
7,C=NC(C(=O)NC1C(=O)N2C1SC(C)(C)C2C(=O)O)c1ccccc1 (stereo unspecified),0.148
8,CC(C)COCC(CN(Cc1ccccc1)c1ccccc1)N1CCCC1 (stereo unspecified),0.0235
9,CC(O)CN1CCN(CC(=O)[O-])CCN(CC(=O)[O-])CCN(CC(=O)[O-])CC1.[Gd+3] (stereo unspecified),0.0545
10,O=C(Nc1ccc(C(=O)O)c(O)c1)c1ccccc1,0.025
11,CCCCOC(=O)c1ccc(N)cc1,0.25
12,CC[C@H]1OC(=O)[C@H](C)[C@@H](O[C@H]2C[C@@](C)(OC)[C@@H](O)[C@H](C)O2)[C@H](C)[C@@H](O[C@@H]2O[C@H](C)C[C@H](N(C)C)[C@H]2O)[C@](C)(OC)C[C@@H](C)C(=O)[C@H](C)[C@@H](O)[C@]1(C)O,0.0889
13,CCCCC1=NC2(CCCC2)C(=O)N1Cc1ccc(-c2ccccc2-c2nnn[nH]2)cc1,0.211
14,C[C@H]1COC2=C1C(=O)C(=O)c1c2ccc2c1CCCC2(C)C,0.255
15,CCOc1ccc(C(=O)c2ccc(OC)c(O)c2O)cc1,0.152
16,CCCC(C)(COC(N)=O)COC(=O)NC(C)C (stereo unspecified),0.0286
17,NC1(C(=O)O)CCC1,0.133
18,COc1ccc(Cc2cnc(N)nc2N)cc1OC,0.0571
19,COC(C)(C)CCC[C@H](C)C/C=C/C(C)=C/C(=O)OC(C)C,0.105
20,C[N+]1(C)CCCC(OC(=O)C(O)(c2ccccc2)c2ccccc2)C1 (stereo unspecified),0.152
21,CNCC[C@H](Oc1cccc2ccccc12)c1cccs1,0.164
22,COc1cc(OC)c(OC)cc1C=O,0.294
23,CO[C@@]1(NC(=O)Cc2cccs2)C(=O)N2C(C(=O)O)=C(COC(N)=O)CS[C@@H]21,0.138

# Of the compounds above, 15 contain a halogen.
row,Compound,fraction of eclosed F1 progeny that are homozygous ATM8
9,CCOC(=O)C(C)(C)Oc1ccc(Cl)cc1,0.185
12,CCC(Cc1c(I)cc(I)c(N)c1I)C(=O)O (stereo unspecified),0
23,CC(C)/N=c1\cc2n(-c3ccc(Cl)cc3)c3ccccc3nc-2cc1Nc1ccc(Cl)cc1,0.222
1,O=C1Cc2cc(CCN3CCN(c4nsc5ccccc45)CC3)c(Cl)cc2N1,0.0455
2,O=C1C(Cl)=C(Cl)C(=O)C(Cl)=C1Cl,0.0444
3,CC1CCc2c(N3CCC(O)CC3)c(F)cc3c(=O)c(C(=O)O)cn1c23 (stereo unspecified),0.13
5,Clc1ccc(COC(Cn2ccnc2)c2ccc(Cl)cc2Cl)c(Cl)c1 (stereo unspecified),0.0385
9,CN1CCN(C2=Nc3cc(Cl)ccc3Nc3ccccc32)CC1,0.263
13,Nc1ncnc(Nc2ccc(Cl)cc2)n1,0.103
15,Oc1ccc(Cl)cc1Cc1cc(Cl)ccc1O,0.234
16,NS(=O)(=O)c1cc(C(=O)O)c(NCc2ccco2)cc1Cl,0.04
20,Cl[C@H]1[C@H](Cl)[C@@H](Cl)[C@@H](Cl)[C@H](Cl)[C@H]1Cl,0.235
22,O=C(O)c1cc2cc(Cl)ccc2[nH]1,0.17
1,CN[C@H](CC(C)C)C(=O)N[C@H]1C(=O)N[C@@H](CC(N)=O)C(=O)N[C@H]2C(=O)N[C@H]3C(=O)N[C@H](C(=O)N[C@H](C(=O)O)c4cc(O)cc(O)c4-c4cc3ccc4O)[C@H](O)c3ccc(c(Cl)c3)Oc3cc2cc(c3O[C@@H]2O[C@H](CO)[C@@H](O)[C@H](O)[C@H]2O[C@H]2C[C@](C)(N)[C@H](O)[C@H](C)O2)Oc2ccc(cc2Cl)[C@H]1O,0.0417
3,NS(=O)(=O)c1cc2c(cc1Cl)N=CNS2(=O)=O,0.111

# The list goes on:

row,Compound,fraction of eclosed F1 progeny that are homozygous ATM8
1,COC(=O)/C(C)=C\CC12OC(C)(C)C3CC(C=C4C(=O)c5c(c(CCC(C)(C)Cl)c6c(c5OC)C5CC(C)(CCC5=C(C)C)O6)OC431)C2=O (stereo unspecified),0.189
2,COc1cc2c(cc1OC)C(=O)C(CC1CCN(Cc3ccccc3)CC1)C2 (stereo unspecified),0.294
3,CCCCC(CC)CN1CN(CC(CC)CCCC)CC(C)(N)C1 (stereo unspecified),0.102
4,CC(C)CCCC(C)C1CCC2C3CCC4CCCCC4(C)C3CCC12C (stereo unspecified),0.0227
5,C=CCc1ccc(OC(=O)c2ccccc2)c(OC)c1,0.0408
6,CCN(CC)CCOC(=O)C(c1ccccc1)C1CCCCC1 (stereo unspecified),0.025
7,COCC1=C(C(=O)OC(C)OC(=O)OC(C)C)N2C(=O)[C@@H](NC(=O)/C(=N\OC)c3csc(N)n3)[C@H]2SC1 (stereo partly specified),0
8,COc1cc(Cc2cnc(N)nc2N)cc(OC)c1OC,0.257
9,CS(=O)(=O)c1ccc(C2=C(c3ccccc3)C(=O)OC2)cc1,0.171
10,Oc1ccc(Cl)c2c1CCC2,0
11,Cc1[nH]c(=O)c(C#N)cc1-c1ccncc1,0.069
12,C#C[C@]1(O)CC[C@H]2[C@@H]3CCc4cc(OC5CCCC5)ccc4[C@H]3CC[C@@]21C,0.0851
13,CN(C)CCC=C1c2ccccc2CCc2ccccc21,0.0455
14,Cc1ccnc2c1NC(=O)c1cccnc1N2C1CC1,0.1
15,CC(=O)O[C@@H]1C[C@H]2C(C)(C)C(=O)C=C[C@]2(C)[C@H]2CC[C@]3(C)C(=CC(=O)O[C@H]3c3ccoc3)[C@@]21C,0.0267
16,O=C(Nc1ccccc1)c1ccccc1O,0.087
17,C=C1C(=O)[C@]23[C@H](CC[C@@H]1[C@@H]2O)[C@]12CO[C@@]3(O)[C@H](O)[C@H]1C(C)(C)CC[C@@H]2O,0.119
18,COC(=O)C[C@H]1C(C)(C)C(=O)[C@@H]2CC3=C(CC[C@]4(C)C3=CC(=O)O[C@H]4c3ccoc3)[C@@]1(C)C2=O,0.184
19,COc1cc(/C=C/C(=O)N2CCC=CC2=O)cc(OC)c1OC,0.15
20,COc1ccc(C2C(=O)c3ccccc3C2=O)cc1,0.259
21,Cc1cccc(C)c1NC(=O)C1CCCCN1C (stereo unspecified),0.2
22,CC(=O)Oc1ccc2c(c1)CC[C@@H]1[C@@H]2CC[C@]2(C)[C@@H](OC(C)=O)CC[C@@H]12,0.161

# Random excerpt: two records from the list
row,Compound,fraction of eclosed F1 progeny that are homozygous ATM8
17,NC1(C(=O)O)CCC1,0.133
12,C#C[C@]1(O)CC[C@H]2[C@@H]3CCc4cc(OC5CCCC5)ccc4[C@H]3CC[C@@]21C,0.0851
